The source of these data is article PMC3037353.

Results are given in words; binding and its absence hold for the method and conditions named. Binding seen in cells or lysates may run through a third protein. Binding calls can cover weak binding; strength is not graded here. Where a sequence is shown, tags or fusion partners need not be part of it.

This assay concerns the target HBZ-myc-His (tagged spliced HTLV-1 bZIP factor) (HTLV-1). Description: co-IP; 293FT cells transiently cotransfected, 24 h later PMA 50 ng/ml and ionomycin 1 ug/ml for 6 h; nuclear extracts (Nuclear Complex Co-IP Kit) prepared with or without ethidium bromide 10 ug/ml; IP with anti-myc (9E10) or anti-Flag (M2) overnight at 4 C, Protein G Sepharose; blots with anti-His, anti-Flag, anti-HA.

B1: HA-tagged Foxp3 (protein, UniProt Q99JB6 1-417)
chain: MPNPRPAKPMAPSLALGPSPGVLPSWKTAPKGSELLGTRGSGGPFQGRDLRSGAHTSSSLNPLPPSQLQLPTVPLVMVAPSGARLGPSPHLQALLQDRPHFMHQLSTVDAHAQTPVLQVRPLDNPAMISLPPPSAATGVFSLKARPGLPPGINVASLEWVSREPALLCTFPRSGTPRKDSNLLAAPQGSYPLLANGVCKWPGCEKVFEEPEEFLKHCQADHLLDEKGKAQCLLQREVVQSLEQQLELEKEKLGAMQAHLAGKMALAKAPSVASMDKSSCCIVATSTQGSVLPAWSAPREAPDGGLFAVRRHLWGSHGNSSFPEFFHNMDYFKYHNMRPPFTYATLIRWAILEAPERQRTLNEIYHWFTRMFAYFRNHPATWKNAIRHNLSLHKCFVRVESEKGAVWTVDEFEFRKKR
For the molecule B1, the binding entry is given as “binds”.
